Measurements published in patent publication US9352015B2, “Antimicrobial peptides” (priority 2009, dated 2016).
Not every detail of the peptide structures is certain; ends, links or a residue may be inferred. Some results were stated once for a whole list of compounds, not compound by compound. Where a SMILES comes first, the peptide text is derived from it.

How the values were obtained:
[1] = RP-HPLC retention as measure of overall peptide hydrophobicity; format: physicochemical; details: 80° C., non-polar face substitution
Procedure: Crude and purified peptides were analyzed on an Agilent 1100 series liquid chromatograph (Little Falls, Del.). Runs were performed on a Zorbax 300 SB-C8 column (150×2.1 mm I.D.; 5 μm particle size, 300 Å pore size) from Agilent Technologies using linear AB gradient (1% acetonitrile/min) and a flow rate of 0.25 ml/min, where eluant A was 0.2% aqueous TFA, pH 2 and eluant B was 0.2% TFA in acetonitrile.

[2] = Circular dichroism spectroscopy (helical structure); format: physicochemical; details: benign conditions (100 mM KCl, 50 mM aq. PO4, pH 7)

Structure (SMILES)	Change in hydrophobicity (retention time) relative to NVL (V681) [1] [min]	[θ]222 molar ellipticity [2]
CC[C@H](C)[C@H](NC(=O)[C@H](C)NC(=O)[C@H](CCCCN)NC(=O)[C@H](CC(C)C)NC(=O)[C@H](C)NC(=O)[C@@H](NC(=O)[C@H](Cc1c[nH]cn1)NC(=O)[C@H](CC(C)C)NC(=O)[C@@H](NC(=O)[C@@H](NC(=O)[C@H](CCCCN)NC(=O)[C@H](C)NC(=O)[C@H](C)NC(=O)[C@H](CO)NC(=O)[C@H](CCCCN)NC(=O)[C@H](Cc1ccccc1)NC(=O)[C@@H](NC(=O)[C@H](CCCCN)NC(=O)[C@H](CC(C)C)NC(=O)[C@H](Cc1ccccc1)NC(=O)[C@H](CO)NC(=O)[C@H](CCCCN)NC(=O)[C@H](Cc1c[nH]c2ccccc12)NC(=O)[C@H](CCCCN)NC(C)=O)[C@@H](C)O)[C@@H](C)O)C(C)C)[C@@H](C)O)C(=O)N[C@@H](CO)C(=O)N[C@@H](CO)C(N)=O [NAL] (Ac-KWKSFLKTFKSAAKTVLHTALKAISS-NH2)	-4.45	
CC[C@H](C)[C@H](NC(=O)[C@H](C)NC(=O)[C@H](CCCCN)NC(=O)[C@H](CC(C)C)NC(=O)[C@H](C)NC(=O)[C@@H](NC(=O)[C@H](Cc1c[nH]cn1)NC(=O)[C@H](CC(C)C)NC(=O)[C@@H](NC(=O)[C@@H](NC(=O)[C@H](CCCCN)NC(=O)CNC(=O)[C@H](C)NC(=O)[C@H](CO)NC(=O)[C@H](CCCCN)NC(=O)[C@H](Cc1ccccc1)NC(=O)[C@@H](NC(=O)[C@H](CCCCN)NC(=O)[C@H](CC(C)C)NC(=O)[C@H](Cc1ccccc1)NC(=O)[C@H](CO)NC(=O)[C@H](CCCCN)NC(=O)[C@H](Cc1c[nH]c2ccccc12)NC(=O)[C@H](CCCCN)NC(C)=O)[C@@H](C)O)[C@@H](C)O)C(C)C)[C@@H](C)O)C(=O)N[C@@H](CO)C(=O)N[C@@H](CO)C(N)=O [NG] (Ac-KWKSFLKTFKSAGKTVLHTALKAISS-NH2)		−1,300 to −3,450
CC[C@H](C)[C@H](NC(=O)[C@H](C)NC(=O)[C@H](CCCCN)NC(=O)[C@H](CC(C)C)NC(=O)[C@H](C)NC(=O)[C@@H](NC(=O)[C@H](Cc1c[nH]cn1)NC(=O)[C@H](CC(C)C)NC(=O)[C@@H](NC(=O)[C@@H](NC(=O)[C@H](CCCCN)NC(=O)[C@H](CC(C)C)NC(=O)[C@H](C)NC(=O)[C@H](CO)NC(=O)[C@H](CCCCN)NC(=O)[C@H](Cc1ccccc1)NC(=O)[C@@H](NC(=O)[C@H](CCCCN)NC(=O)[C@H](CC(C)C)NC(=O)[C@H](Cc1ccccc1)NC(=O)[C@H](CO)NC(=O)[C@H](CCCCN)NC(=O)[C@H](Cc1c[nH]c2ccccc12)NC(=O)[C@H](CCCCN)NC(C)=O)[C@@H](C)O)[C@@H](C)O)C(C)C)[C@@H](C)O)C(=O)N[C@@H](CO)C(=O)N[C@@H](CO)C(N)=O [NLL] (Ac-KWKSFLKTFKSALKTVLHTALKAISS-NH2)		−20,600
CC[C@H](C)[C@H](NC(=O)[C@H](C)NC(=O)[C@H](CCCCN)NC(=O)[C@H](CC(C)C)NC(=O)[C@H](C)NC(=O)[C@@H](NC(=O)[C@H](Cc1c[nH]cn1)NC(=O)[C@H](CC(C)C)NC(=O)[C@@H](NC(=O)[C@@H](NC(=O)[C@H](CCCCN)NC(=O)[C@H](CO)NC(=O)[C@H](C)NC(=O)[C@H](CO)NC(=O)[C@H](CCCCN)NC(=O)[C@H](Cc1ccccc1)NC(=O)[C@@H](NC(=O)[C@H](CCCCN)NC(=O)[C@H](CC(C)C)NC(=O)[C@H](Cc1ccccc1)NC(=O)[C@H](CO)NC(=O)[C@H](CCCCN)NC(=O)[C@H](Cc1c[nH]c2ccccc12)NC(=O)[C@H](CCCCN)NC(C)=O)[C@@H](C)O)[C@@H](C)O)C(C)C)[C@@H](C)O)C(=O)N[C@@H](CO)C(=O)N[C@@H](CO)C(N)=O [NSL] (Ac-KWKSFLKTFKSASKTVLHTALKAISS-NH2)	-8.21	−1,300 to −3,450
